Reference: article doi:10.1101/2021.04.01.438015
Where two headings read alike, the source gives them in different places. No constants are given. Whether binding was seen depends on the method and setting. Binding seen in cells or lysates may run through a third protein. Some results given as binding are weak or reduced against the parent protein; the word gives no strength. For some assays here: Tags and fused reporters may be left off the sequences shown.

By UniProt entry, the sequences of proteins in these tests, tags left out. Residues count along the entry.
UniProt Q9QZH6, residues 49-435: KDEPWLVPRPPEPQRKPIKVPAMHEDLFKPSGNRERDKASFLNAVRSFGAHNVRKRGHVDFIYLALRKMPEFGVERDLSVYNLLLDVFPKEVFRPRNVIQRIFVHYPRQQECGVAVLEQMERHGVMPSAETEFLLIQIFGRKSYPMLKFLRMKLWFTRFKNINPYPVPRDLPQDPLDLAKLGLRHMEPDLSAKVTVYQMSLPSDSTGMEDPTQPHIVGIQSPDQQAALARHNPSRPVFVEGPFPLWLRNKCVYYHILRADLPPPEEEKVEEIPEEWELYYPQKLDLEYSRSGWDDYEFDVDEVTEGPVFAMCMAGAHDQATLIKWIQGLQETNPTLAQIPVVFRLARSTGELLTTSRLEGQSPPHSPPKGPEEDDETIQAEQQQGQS
UniProt Q9CWX2, residues 25-328: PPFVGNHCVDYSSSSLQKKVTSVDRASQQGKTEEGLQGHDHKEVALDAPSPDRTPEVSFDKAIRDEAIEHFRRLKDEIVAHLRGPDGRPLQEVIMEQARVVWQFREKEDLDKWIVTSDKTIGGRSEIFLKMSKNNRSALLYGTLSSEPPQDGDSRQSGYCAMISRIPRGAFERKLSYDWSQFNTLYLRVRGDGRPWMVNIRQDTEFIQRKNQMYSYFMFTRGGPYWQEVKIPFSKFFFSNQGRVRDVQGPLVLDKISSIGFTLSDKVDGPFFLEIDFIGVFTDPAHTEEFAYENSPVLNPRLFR

Key:
Assay in all cases: co-IP
[1] = target: Evolutionarily conserved signalling intermediate in Toll pathway (ECSIT), wild type, 6xHis tagged (mouse) (UniProt Q9QZH6)
[2] = target: T1, TRAF6 (tumour necrosis factor (TNF) receptor associated factor 6), wild type, Myc tagged (UniProt P70196)
T1 sequence: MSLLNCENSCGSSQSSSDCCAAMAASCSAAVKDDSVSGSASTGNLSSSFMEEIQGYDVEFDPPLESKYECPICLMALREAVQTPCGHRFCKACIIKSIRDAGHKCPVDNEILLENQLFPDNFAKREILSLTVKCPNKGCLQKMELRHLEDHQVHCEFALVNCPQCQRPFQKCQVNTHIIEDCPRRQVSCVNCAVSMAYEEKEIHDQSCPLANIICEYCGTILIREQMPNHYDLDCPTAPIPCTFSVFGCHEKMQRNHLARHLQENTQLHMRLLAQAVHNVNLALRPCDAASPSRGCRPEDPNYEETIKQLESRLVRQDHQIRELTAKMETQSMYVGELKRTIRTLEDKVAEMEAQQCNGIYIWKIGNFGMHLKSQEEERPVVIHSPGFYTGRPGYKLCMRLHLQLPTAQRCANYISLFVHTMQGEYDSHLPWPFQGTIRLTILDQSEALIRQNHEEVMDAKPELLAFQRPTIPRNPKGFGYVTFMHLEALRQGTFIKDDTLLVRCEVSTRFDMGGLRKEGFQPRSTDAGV

[3] = target: NDUFAF1, wild type, Myc tagged (UniProt Q9CWX2)
[4] = target: T2, ACAD9, wild type, Myc tagged (UniProt Q8JZN5)
T2 sequence: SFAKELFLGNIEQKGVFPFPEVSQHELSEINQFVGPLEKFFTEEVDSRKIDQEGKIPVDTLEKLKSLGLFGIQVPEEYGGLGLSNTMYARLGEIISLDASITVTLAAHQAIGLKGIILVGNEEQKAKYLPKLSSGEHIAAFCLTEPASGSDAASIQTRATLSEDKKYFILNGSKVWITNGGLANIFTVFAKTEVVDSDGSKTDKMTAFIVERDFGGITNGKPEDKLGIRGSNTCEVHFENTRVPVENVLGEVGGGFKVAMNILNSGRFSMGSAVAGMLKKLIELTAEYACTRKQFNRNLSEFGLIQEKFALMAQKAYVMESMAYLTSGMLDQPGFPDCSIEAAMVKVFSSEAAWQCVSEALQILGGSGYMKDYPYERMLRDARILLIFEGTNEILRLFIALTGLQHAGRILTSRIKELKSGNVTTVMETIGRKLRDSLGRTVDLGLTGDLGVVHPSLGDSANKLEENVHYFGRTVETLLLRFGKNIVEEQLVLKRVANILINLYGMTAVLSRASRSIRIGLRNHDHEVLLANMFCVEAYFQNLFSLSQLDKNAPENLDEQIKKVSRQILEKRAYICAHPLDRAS

[5] = target: Evolutionarily conserved signalling intermediate in Toll pathway (ECSIT), wild type, 6xHis tagged (mouse) (UniProt Q9QZH6); remark: listed apart in the source

“NDUFAF1, wild type, Myc tagged (from UniProt Q9CWX2 25-328)” was tested, and the binding [1] was “binds”.

For “Evolutionarily conserved signalling intermediate in Toll pathway (ECSIT), wild type, 6xHis tagged (from UniProt Q9QZH6 49-435)”, the binding [2] was “binds”, the binding [3] was “binds” and the binding [4] was “binds”.

B1: ACAD9, wild type, Myc tagged (protein, UniProt Q8JZN5 42-625)
chain: T2 sequence
With B1 the binding [5] was “binds”.
